{"source": "PubChem BioAssay AID1508597 (Cure First, 2020)", "test": "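Survival screen with siRNA in ovarian cancer cells derived from patients, with or without rucaparib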 (primary screen)", "system": "human ovarian carcinoma lines grown from tumours: OCI-P5x (papillary serous) and OCI-C5x (clear cell)", "reagents": "siRNA pool against human genes, 1.25 pmol siRNA per well", "time to read-out": "72 h or 96 h, depending on the cell culture", "treatment": "rucaparib 20 µM (about IC30) or vehicle, present until read-out", "rucaparib or vehicle": "Vehicle", "cell line": "OCI-C5x (clear cell)", "measured": "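Luminescent ATP-based viability assay read 72 or 96 h after transfection, depending on culture, given as normalised percent viability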", "reading the numbers": "viability, normalised: higher = more viable cells remaining", "active means": "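Active when normalised viability falls below 80 percent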", "calls": "active = viability under 80%; inactive = viability 80% or more", "note": "This is an unselected part of the about 2,100 reagents, in one setting of the screen. 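Calls flag viability under 80% in either arm, not effects specific to rucaparib; the reference for percent is not stated.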 The record does not give: the 100% reference."}
{"gene": "MPG (N-methylpurine DNA glycosylase)", "technical replicate": "1", "viability, normalised (%)": 62.9, "activity call": "active"}
{"gene": "MPG (N-methylpurine DNA glycosylase)", "technical replicate": "2", "viability, normalised (%)": 64, "activity call": "active"}
{"gene": "MPG (N-methylpurine DNA glycosylase)", "technical replicate": "3", "viability, normalised (%)": 57.7, "activity call": "active"}
{"gene": "ENPP2 (ectonucleotide pyrophosphatase/phosphodiesterase 2)", "technical replicate": "1", "viability, normalised (%)": 66.7, "activity call": "active"}
{"gene": "ENPP2 (ectonucleotide pyrophosphatase/phosphodiesterase 2)", "technical replicate": "2", "viability, normalised (%)": 60.8, "activity call": "active"}
{"gene": "ENPP2 (ectonucleotide pyrophosphatase/phosphodiesterase 2)", "technical replicate": "3", "viability, normalised (%)": 64.6, "activity call": "active"}
{"gene": "HMG20A (high mobility group 20A)", "technical replicate": "1", "viability, normalised (%)": 61.1, "activity call": "active"}
{"gene": "HMG20A (high mobility group 20A)", "technical replicate": "2", "viability, normalised (%)": 45.6, "activity call": "active"}
{"gene": "HMG20A (high mobility group 20A)", "technical replicate": "3", "viability, normalised (%)": 78.5, "activity call": "active"}
{"gene": "CDYL (chromodomain Y like)", "technical replicate": "1", "viability, normalised (%)": 32.1, "activity call": "active"}
{"gene": "CDYL (chromodomain Y like)", "technical replicate": "2", "viability, normalised (%)": 50.4, "activity call": "active"}
{"gene": "CDYL (chromodomain Y like)", "technical replicate": "3", "viability, normalised (%)": 53.5, "activity call": "active"}
{"gene": "ENPP7 (ectonucleotide pyrophosphatase/phosphodiesterase 7)", "technical replicate": "1", "viability, normalised (%)": 57.5, "activity call": "active"}
{"gene": "ENPP7 (ectonucleotide pyrophosphatase/phosphodiesterase 7)", "technical replicate": "2", "viability, normalised (%)": 53.2, "activity call": "active"}
{"gene": "ENPP7 (ectonucleotide pyrophosphatase/phosphodiesterase 7)", "technical replicate": "3", "viability, normalised (%)": 53.3, "activity call": "active"}
{"gene": "MEAF6 (MYST/Esa1 associated factor 6)", "technical replicate": "1", "viability, normalised (%)": 51.7, "activity call": "active"}
{"gene": "MEAF6 (MYST/Esa1 associated factor 6)", "technical replicate": "2", "viability, normalised (%)": 60.2, "activity call": "active"}
{"gene": "MEAF6 (MYST/Esa1 associated factor 6)", "technical replicate": "3", "viability, normalised (%)": 63.6, "activity call": "active"}
{"gene": "MPP1 (MAGUK p55 scaffold protein 1)", "technical replicate": "1", "viability, normalised (%)": 78.7, "activity call": "active"}
{"gene": "MPP1 (MAGUK p55 scaffold protein 1)", "technical replicate": "2", "viability, normalised (%)": 71.2, "activity call": "active"}
{"gene": "MPP1 (MAGUK p55 scaffold protein 1)", "technical replicate": "3", "viability, normalised (%)": 63.1, "activity call": "active"}

In a second layout: entries from further up
| gene | technical replicate | viability, normalised (%) | activity call |
| --- | --- | --- | --- |
| ENPP2 (ectonucleotide pyrophosphatase/phosphodiesterase 2) | 3 | 64.6 | active |
| HMG20A (high mobility group 20A) | 1 | 61.1 | active |

Next records follow.
{"gene": "RPS6KA6 (ribosomal protein S6 kinase A6)", "technical replicate": "1", "viability, normalised (%)": 35, "activity call": "active"}
{"gene": "RPS6KA6 (ribosomal protein S6 kinase A6)", "technical replicate": "2", "viability, normalised (%)": 54.6, "activity call": "active"}
{"gene": "RPS6KA6 (ribosomal protein S6 kinase A6)", "technical replicate": "3", "viability, normalised (%)": 33.5, "activity call": "active"}
{"gene": "PDE10A (phosphodiesterase 10A)", "technical replicate": "1", "viability, normalised (%)": 49, "activity call": "active"}
{"gene": "PDE10A (phosphodiesterase 10A)", "technical replicate": "2", "viability, normalised (%)": 31.6, "activity call": "active"}
{"gene": "PDE10A (phosphodiesterase 10A)", "technical replicate": "3", "viability, normalised (%)": 35.3, "activity call": "active"}
{"gene": "JMJD1C (jumonji domain containing 1C)", "technical replicate": "1", "viability, normalised (%)": 63.2, "activity call": "active"}
{"gene": "JMJD1C (jumonji domain containing 1C)", "technical replicate": "2", "viability, normalised (%)": 63.1, "activity call": "active"}
{"gene": "JMJD1C (jumonji domain containing 1C)", "technical replicate": "3", "viability, normalised (%)": 79.2, "activity call": "active"}
{"gene": "AGO3 (argonaute RISC catalytic component 3)", "technical replicate": "1", "viability, normalised (%)": 46.9, "activity call": "active"}
{"gene": "AGO3 (argonaute RISC catalytic component 3)", "technical replicate": "2", "viability, normalised (%)": 47, "activity call": "active"}
{"gene": "AGO3 (argonaute RISC catalytic component 3)", "technical replicate": "3", "viability, normalised (%)": 57.8, "activity call": "active"}
